Data reported in patent US9216955B2, “Polymorphic form of Fexofenadine hydrochloride, intermediates and process for its preparation” ([…] S.R.L., priority 2010, dated 2015).

Compound: CC(C)(C(=O)O)c1ccc(C(O)CCCN2CCC(C(O)(c3ccccc3)c3ccccc3)CC2)cc1.Cl (centres unmarked) [polymorph φ, 2-[4-[1-hydroxy-4-[4-(hydroxydiphenylmethyl)-1-piperidyl]-butyl]phenyl]-2-methylpropanoic acid]
- water absorption after extended exposure (at least for one year at room temperature with relative humidity of 60-70%): does not absorb water
- stability of the solid form (can be stored for a long period of time under normal storage conditions): stable
